Assay results taken from the supplement of paper PMC10398353.
“And” between values parts separate entries of the source, which are not always exact repeats. Identical values can stand only once. Counter-ions that a name gives are not always drawn. ± gives the standard deviation of the averaged measurements. This is one part of the list. This is a noisy data set.

Tested on: Salmonella enterica serovar Typhimurium ST313 D23580
Experiment: normalized bacterial growth (OD600 20 h minus 0 h, interquartile-mean normalized) (fraction of plate interquartile mean); higher = more bacterial growth (less inhibition)
Details: LPM (pH 5.8, low phosphate, low Mg2+), concentration: 10 µM, temperature: 37 °C

SMILES | normalized bacterial growth
CCC1(CC)C(=O)C=CNC1=O | 0.987
C[C@@H]1NCCc2cc(O)c(O)cc21 [Salsolinol hydrobromide] | 1.13
C[C@@H]1NCCc2cc(O)c(O)cc21 | 0.403
CNCCc1c[nH]c2ccc(O)cc12 [N-omega-Methyl-5-hydroxytryptamine oxalate salt] | 0.998
NCCCP(=O)(O)O [3-Aminopropylphosphonic acid] | 0.748
NNC(=O)c1ccc(O)cc1 [4-Hydroxybenzhydrazide] | 1.15
NCCc1c[nH]c2ccc(O)cc12 [Serotonin hydrochloride] | 1.01
CCCN(CCC)CCc1ccc(O)c(O)c1 [Dipropyldopamine hydrobromide] | 0.944
COc1ccc(C[C@H]2NC[C@H](O)[C@H]2OC(C)=O)cc1 | 1.03 ± 0.15
CN1[C@@H](C[C@@H](O)c2ccccc2)CCC[C@H]1C[C@H](O)c1ccccc1 [Lobelanidine hydrochloride] | 0.759
COc1ccc2c(c1)/C(=C/c1cnc[nH]1)C(=O)N2 | 1.2
CC1(C)N([O-])[N+](=O)C1(C)Br (stereo not drawn) | 1.21
Ic1ccccc1CNC1C2CCN(CC2)C1C(c1ccccc1)c1ccccc1 ["L-703,606 oxalate"] | 0.688
O=C1c2ccccc2C(=O)c2ccccc21 | 0.859
Oc1c(Cl)c(Cl)c(Cl)c(Cl)c1Cl | 0.271
Cc1ccc(O)cc1.Cc1cccc(O)c1.Cc1ccccc1O | 0.9
CC1=CC(=O)C2=C(C)C[C@H](O)[C@@H]3[C@H](OC(=O)[C@H]3C)[C@@H]12 | 1.21
CC[C@H]1[C@@H]2C[C@H]3[C@@H]4N(C)c5ccccc5[C@]45C[C@@H]([C@@H]2[C@H]5O)N3[C@@H]1O [Ajmaline] | 0.975
CC[C@H]1[C@@H]2C[C@H]3[C@@H]4N(C)c5ccccc5[C@]45C[C@@H]([C@@H]2[C@H]5O)N3[C@@H]1O | 0.9028 ± 0.0041
CS(=N)(=O)CC[C@H](N)C(=O)O (stereo partly drawn) [L-Methionine sulfoximine] | 1.19
C[C@@H]1CC[C@H]2[C@@H](C)C(=O)O[C@@H]3O[C@@]4(C)CC[C@@H]1[C@]32OO4 | 1.03

SMILES | normalized bacterial growth
CC[C@H]1CN2CCc3cc(OC)c(OC)cc3[C@@H]2C[C@@H]1C[C@H]1NCCc2cc(OC)c(OC)cc21 [Emetine dihydrochloride hydrate] | 1.07
CC[C@H]1CN2CCc3cc(OC)c(OC)cc3[C@@H]2C[C@@H]1C[C@H]1NCCc2cc(OC)c(OC)cc21 | 0.89 ± 0.15
CC(C)(C)C(=O)C(Oc1ccc(Cl)cc1)n1cncn1 (stereo not drawn) | 1.21
COc1ccc(C(=O)O[C@H]2CC[C@@]3(C)[C@@H]4CC[C@H]5[C@]6(O)C[C@H](O)[C@@]7(O)[C@@H](CN8C[C@@H](C)CC[C@H]8[C@@]7(C)O)[C@]6(O)C[C@@]53O[C@]24O)cc1OC | 0.984
COc1cc([C@@H]2c3cc4c(cc3[C@H](O)[C@H]3COC(=O)[C@H]23)OCO4)cc(OC)c1OC | 0.752 and 1.01
CC(C)C[C@H](CN)CC(=O)O | 0.879
CN(C)C(=S)SSC(=S)N(C)C | 0.791
O=C1NC(=O)C(=O)C(=O)N1 | 1.02
CC(C)(C)NCC(O)c1ccccc1Cl (stereo not drawn) [Tulobuterol hydrochloride] | 1.07
CC1(C(=O)O)C2CCC(O2)C1(C)C(=O)O (stereo not drawn) [Cantharidic Acid] | 0.887
C[C@@]1(CO)[C@H](O)CC[C@@]2(C)[C@H]1CC[C@H]1C[C@@H]3C[C@@]12CC[C@]3(O)CO | 1.04
CCN1C[C@]2(COC)CC[C@H](O)[C@@]34C5C[C@@H]6[C@@H](OC)C[C@](O)(C(CC23)C14)C5[C@H]6OC(C)=O (stereo partly drawn) | 1.03
COc1cc2c3cc1Oc1c(OC)c(OC)cc4c1[C@H](Cc1ccc(cc1)Oc1cc(ccc1O)C[C@H]3N(C)CC2)N(C)CC4 | 1.07
Cc1nnc2ccc(-c3cccc(C(F)(F)F)c3)nn12 | 0.939
COc1cc2c(cc1-c1cc3cc4ccoc4cc3oc1=O)OCO2 | 1.14
CCCN1CCc2cc(O)cc3c2[C@H]1Cc1ccc(O)c(O)c1-3 ["R(-)-2,10,11-Trihydroxy-N-propylnoraporphine hydrobromide"] | 0.859
C[N+]12CCC(CC1)C(OC(=O)C(O)(c1ccccc1)c1ccccc1)C2 (stereo not drawn) | 1.15
O=C(O)CCC1NCC2CC1CN1CCCCC21 (stereo not drawn) | 1.03
CCCN(CCC)[C@@H]1CCc2cccc(O)c2C1 [R-(+)-8-Hydroxy-DPAT hydrobromide] | 0.917
C#CCN[C@H](C)Cc1ccccc1 [R-(-)-Desmethyldeprenyl hydrochloride] | 1.25
O=C1CCC[C@@H]2[C@H]3C[C@@H](CN12)[C@@H]1CCCCN1C3.[O-][Cl+3]([O-])([O-])O | 1.3

SMILES | normalized bacterial growth
C[C@@]12N[C@@H](Cc3ccccc31)c1ccccc12 [(-)-MK 801 hydrogen maleate] | 0.883
C[C@@]12N[C@@H](Cc3ccccc31)c1ccccc12 [(-)-MK-801 hydrogen maleate] | 1.04
CC(CC(C(N)=O)(c1ccccc1)c1ccccc1)N(C)C (stereo not drawn) | 0.686
COC(=O)C(c1ccccc1)C1CCCCN1 (stereo not drawn) | 1.13
COC[C@]12CN(C=O)[C@@H]3[C@@H]4[C@H](OC)[C@H]1[C@@]3([C@@H](OC)C[C@H]2O)[C@@H]1C[C@@]2(O)[C@H](OC(=O)c3ccccc3)[C@@H]1[C@]4(OC(C)=O)[C@@H](O)[C@@H]2OC | 1.3
CC(C)=CCCC1(C)C=Cc2c(O)c3c(c(CC=C(C)C)c2O1)OC12C(=CC4CC1C(C)(C)OC2(C/C=C(/C)C(=O)O)C4O)C3=O (stereo not drawn) | 1.11
C[C@H]1C(=O)O[C@@H]2CCN3CC=C(COC(=O)[C@](C)(O)[C@]1(C)O)[C@H]23 | 0.932
CO[C@]12C[C@@H](COC(=O)c3cncc(Br)c3)CN(C)[C@@H]1Cc1cn(C)c3cccc2c13 | 0.737
O=C(O)COc1cc(Cl)c(Cl)cc1Cl | 1.22
CC(=O)OCC1=C(C(=O)O)N2C(=O)[C@@H](N)[C@H]2SC1 | 0.943
CC(=O)OCC1=C(C(=O)O)N2C(=O)[C@@H](N)[C@H]2SC1 ["Cephalosporanic acid, 7-amino"] | 0.833
C=C(C)[C@@H]1[C@H]2OC(=O)[C@@H]1[C@]1(O)C[C@H]3OC34C(=O)O[C@H]2[C@@]41C.CC(C)(O)[C@@H]1[C@H]2OC(=O)[C@@H]1[C@]1(O)C[C@H]3OC34C(=O)O[C@H]2[C@@]41C (stereo partly drawn) [Picrotoxin] | 1.01
COC1=C[C@@H]2C3=C([C@@H]2C1=O)[C@@H](NC(C)=O)CCc1cc(OC)c(OC)c(OC)c13 [Lumicolchicine gamma] | 1.02
CC1=C[C@H]2[C@@]3(O)[C@H](C)[C@@H](O)[C@]4(O)[C@H]([C@@H]3C=C(CO)C[C@]2(O)C1=O)C4(C)C | 1.14
CC(C)NP(=O)(NC(C)C)OP(=O)(NC(C)C)NC(C)C [Tetraisopropyl pyrophosphoramide] | 0.838
C=C[C@]12CN(C)[C@@H]3[C@H]4CO[C@H](C[C@H]41)[C@]1(C(=O)Nc4ccccc41)[C@@H]32 | 1.06
C=C[C@]12CN(C)[C@@H]3[C@H]4CO[C@H](C[C@H]41)[C@]1(C(=O)Nc4ccccc41)[C@@H]32 [Gelsemine] | 1.23
Cc1c2ccncc2c(C)c2c1[nH]c1ccccc12 | 1.22
C=CCc1ccccc1OCC(O)CNC1(C)CCC(C(C)(C)NC(=O)CBr)CC1 (stereo not drawn) [Bromoacetyl alprenolol menthane] | 1.45
CC(=O)OCC(=O)[C@H]1CC[C@H]2[C@@H]3CC[C@H]4C[C@H](O)CC[C@]4(C)[C@H]3C(=O)C[C@]12C [Alfadolone acetate] | 1.13
CC(=O)NBr [N-Bromoacetamide] | 1.09

SMILES | normalized bacterial growth
CSC(=S)NCc1c[nH]c2ccccc12 | 1.2
COS(C)(=O)=O | 0.985
CC(=O)OC1CCC23C(=O)OC45CCC(C6=CC(=O)OC6)C4(C)CCC2C5CCC3(O)C1 (stereo not drawn) | 1.29
CCCCN(CC)c1c([N+](=O)[O-])cc(C(F)(F)F)cc1[N+](=O)[O-] | 1
NCc1cc(O)no1 [Muscimol hydrobromide] | 1.03
COc1cc2c(cc1OC)C(C)NCC2 (stereo not drawn) | 0.795
NC(=O)CN1CCCC1=O [Piracetam] | 1.08
COc1c2c3c4c(c(OC)c(=O)c5c(O)cc(OC)c(c6c(OC)cc(O)c(c1=O)c63)c54)[C@@H](C(C)=O)[C@@](C)(O)C2 | 1.24
O=P1(NCCCl)OCCCN1CCCl (stereo not drawn) | 0.0464
CO[C@H](C)[C@](O)(C(=O)OCC1=CCN2CC[C@H](O)[C@@H]12)C(C)C | 0.969
CO[C@H](C)[C@](O)(C(=O)OCC1=CCN2CC[C@H](O)[C@@H]12)C(C)C [Heliotrine] | 0.976
Oc1ccc2c3c1O[C@H]1c4oc5ccccc5c4C[C@@]4(O)[C@@H](C2)N(CC2CC2)CC[C@]314 [Naltriben methanesulfonate] | 0.739
C=C(C)[C@@H]1[C@H]2OC(=O)[C@@H]1[C@]1(O)C[C@H]3O[C@]34C(=O)O[C@H]2[C@]14C [Picrotoxinin] | 1.13
C=C(C)[C@@H]1[C@H]2OC(=O)[C@@H]1[C@]1(O)C[C@H]3O[C@]34C(=O)O[C@H]2[C@]14C | 0.78
CC(C)c1c(CN(C)C(C)Cc2ccccc2)n(C)n(-c2ccccc2)c1=O (stereo not drawn) | 1.14
N#CCCN [3-Aminopropionitrile fumarate] | 1.07
Oc1ccc(Cl)cc1 | 1.2
Cc1cccc(C)c1NC1=NCCCS1 [Xylazine hydrochloride] | 0.651
Cc1cccc(C)c1NC1=NCCCS1 | 1.11
CCNC(=O)[C@H]1O[C@@H](n2cnc3c(N)ncnc32)[C@H](O)[C@@H]1O [5'-N-Ethylcarboxamidoadenosine] | 1.19
